From PMC7244012
These are yes or no findings as the source states them, for the method shown. Some entries that bind do so weakly or less than the wild type.

Molecular target: T1, human anti-Müllerian hormone receptor type II on AMHR2-OVCAR8 cells (human) (UniProt Q16671)
T1 sequence: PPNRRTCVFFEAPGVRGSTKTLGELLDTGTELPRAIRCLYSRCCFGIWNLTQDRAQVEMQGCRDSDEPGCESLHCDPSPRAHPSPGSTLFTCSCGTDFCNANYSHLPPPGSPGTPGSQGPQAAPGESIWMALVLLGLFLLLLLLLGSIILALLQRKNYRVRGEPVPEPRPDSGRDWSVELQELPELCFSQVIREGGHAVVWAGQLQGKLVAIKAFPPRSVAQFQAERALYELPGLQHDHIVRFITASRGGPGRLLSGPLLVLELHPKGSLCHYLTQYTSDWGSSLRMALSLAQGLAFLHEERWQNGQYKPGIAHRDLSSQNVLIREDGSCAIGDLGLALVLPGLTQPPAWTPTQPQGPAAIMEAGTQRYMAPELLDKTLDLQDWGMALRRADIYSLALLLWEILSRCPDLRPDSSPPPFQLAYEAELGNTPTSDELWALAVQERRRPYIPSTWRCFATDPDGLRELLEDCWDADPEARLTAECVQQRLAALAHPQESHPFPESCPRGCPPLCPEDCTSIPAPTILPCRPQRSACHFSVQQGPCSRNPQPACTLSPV
Experiment: flow cytometry on cells; competition: recombinant human AMH at increasing doses against the 4D12G1 mAb for binding to AMHR2-OVCAR8 cells; Fc-receptor block; detection with FITC-labeled goat anti-mouse IgG; only the binder purified

binding: binds
B1: recombinant human anti-Müllerian hormone (ligand, UniProt P03971 452-560)
chain: SAGATAADGPCALRELSVDLRAERSVLIPETYQANNCQGVCGWPQSDRNPRYGNHVVLLLKMQVRGAALARPPCCVPTAYAGKLLISLSEERISAHHVPNMVATECGCR
